Paper doi:10.1101/2022.06.21.497003
No constants are given. Whether binding was seen depends on the method and setting. Binding seen in cells or lysates may run through a third protein. Some results given as binding are weak or reduced against the parent protein; the word gives no strength. Tags and fused reporters may be left off the sequences shown.

T1: 3HA-DAR3 (Arabidopsis thaliana) (UniProt Q9LVR6)
T1 sequence: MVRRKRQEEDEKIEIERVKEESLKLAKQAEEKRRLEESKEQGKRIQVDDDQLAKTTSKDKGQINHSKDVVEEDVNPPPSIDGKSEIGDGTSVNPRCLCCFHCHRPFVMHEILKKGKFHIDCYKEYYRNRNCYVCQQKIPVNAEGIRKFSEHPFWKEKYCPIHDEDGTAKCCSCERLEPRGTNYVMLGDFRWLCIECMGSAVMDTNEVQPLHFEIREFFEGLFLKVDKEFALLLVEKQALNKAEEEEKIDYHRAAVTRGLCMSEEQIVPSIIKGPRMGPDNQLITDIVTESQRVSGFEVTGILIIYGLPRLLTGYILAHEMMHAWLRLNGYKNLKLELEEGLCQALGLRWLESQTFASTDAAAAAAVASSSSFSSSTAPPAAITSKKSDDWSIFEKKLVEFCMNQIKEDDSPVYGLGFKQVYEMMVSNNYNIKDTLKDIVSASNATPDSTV


Target: T1, 3HA-DAR3 (Arabidopsis thaliana)
Assay: co-IP

binding | Binder
binds | 3HA-DAR3 (protein, UniProt Q9LVR6 1-450) MVRRKRQEEDEKIEIERVKEESLKLAKQAEEKRRLEESKEQGKRIQVDDDQLAKTTSKDKGQINHSKDVVEEDVNPPPSIDGKSEIGDGTSVNPRCLCCFHCHRPFVMHEILKKGKFHIDCYKEYYRNRNCYVCQQKIPVNAEGIRKFSEHPFWKEKYCPIHDEDGTAKCCSCERLEPRGTNYVMLGDFRWLCIECMGSAVMDTNEVQPLHFEIREFFEGLFLKVDKEFALLLVEKQALNKAEEEEKIDYHRAAVTRGLCMSEEQIVPSIIKGPRMGPDNQLITDIVTESQRVSGFEVTGILIIYGLPRLLTGYILAHEMMHAWLRLNGYKNLKLELEEGLCQALGLRWLESQTFASTDAAAAAAVASSSSFSSSTAPPAAITSKKSDDWSIFEKKLVEFCMNQIKEDDSPVYGLGFKQVYEMMVSNNYNIKDTLKDIVSASNATPDSTV
binds | DAR2-3FLAG (protein, UniProt Q0WSN2 1-528) MDSSSSSSSSSPSSSYGVARVSHISNPCIFGEVGSSSSSTYRDKKWKLMKWVSKLFKSGSNGGGSGAHTNHHPPQFQEDENMVFPLPPSSLDDRSRGARDKEELDRSISLSLADNTKRPHGYGWSMDNNRDFPRPFHGGLNPSSFIPPYEPSYQYRRRQRICGGCNSDIGSGNYLGCMGTFFHPECFRCHSCGYAITEHEFSLSGTKPYHKLCFKELTHPKCEVCHHFIPTNDAGLIEYRCHPFWNQKYCPSHEYDKTARCCSCERLESWDVRYYTLEDGRSLCLECMETAITDTGECQPLYHAIRDYYEGMYMKLDQQIPMLLVQREALNDAIVGEKNGYHHMPETRGLCLSEEQTVTSVLRRPRLGAHRLVGMRTQPQRLTRKCEVTAILVLYGLPRLLTGAILAHELMHGWLRLNGFRNLNPEVEEGICQVLSYMWLESEVLSDPSTRNLPSTSSVATSSSSSFSNKKGGKSNVEKKLGEFFKHQIAHDASPAYGGGFRAANAAACKYGLRRTLDHIRLTGTFPL
binds | DAR1-3FLAG (protein, UniProt Q8W4F0 1-553) MGWLTKILKGSSHKFSDGQCNGRYREDRNLEGPRYSAEGSDFDKEEIECAIALSLSEQEHVIPQDDKGKKIIEYKSETEEDDDDDEDEDEEYMRAQLEAAEEEERRVAQAQIEEEEKRRAEAQLEETEKLLAKARLEEEEMRRSKAQLEEDELLAKALQESMNVGSPPRYDPGNILQPYPFLIPSSHRICVGCQAEIGHGRFLSCMGGVWHPECFCCNACDKPIIDYEFSMSGNRPYHKLCYKEQHHPKCDVCHNFIPTNPAGLIEYRAHPFWMQKYCPSHERDGTPRCCSCERMEPKDTKYLILDDGRKLCLECLDSAIMDTHECQPLYLEIREFYEGLHMKVEQQIPMLLVERSALNEAMEGEKHGHHHLPETRGLCLSEEQTVTTVLRRPRIGAGYKLIDMITEPCRLIRRCEVTAILILYGLPRLLTGSILAHEMMHAWLRLNGYPNLRPEVEEGICQVLAHMWLESETYAGSTLVDIASSSSSAVVSASSKKGERSDFEKKLGEFFKHQIESDSSSAYGDGFRQGNQAVLKHGLRRTLDHIRLTGTFP
binds | DA1-3FLAG (protein, UniProt P0C7Q8 1-532) MGWFNKIFKGSNQRLRVGNNKHNHNVYYDNYPTASHDDEPSAADTDADNDEPHHTQEPSTSEDNTSNDQENEDIDRAIALSLLEENQEQTSISGKYSMPVDEDEQLARALQESMVVGNSPRHKSGSTYDNGNAYGAGDLYGNGHMYGGGNVYANGDIYYPRPITFQMDFRICAGCNMEIGHGRFLNCLNSLWHPECFRCYGCSQPISEYEFSTSGNYPFHKACYRERYHPKCDVCSHFIPTNHAGLIEYRAHPFWVQKYCPSHEHDATPRCCSCERMEPRNTRYVELNDGRKLCLECLDSAVMDTMQCQPLYLQIQNFYEGLNMKVEQEVPLLLVERQALNEAREGEKNGHYHMPETRGLCLSEEQTVSTVRKRSKHGTGKWAGNITEPYKLTRQCEVTAILILFGLPRLLTGSILAHEMMHAWMRLKGFRTLSQDVEEGICQVMAHKWLDAELAAGSTNSNAASSSSSSQGLKKGPRSQYERKLGEFFKHQIESDASPVYGDGFRAGRLAVHKYGLRKTLEHIQMTGRFPV
